Measured values taken from PubChem BioAssay AID2685 (National Center for Advancing Translational Sciences (NCATS), 2010).
The other results are listed elsewhere or left out. The main result of the screen is listed elsewhere. These columns were measured beside it and carry no call. Compounds called inactive in the main read-out are mostly missing here. Words in brackets tell the shape of the fitted curve; partial curves, single points and poor fits give uncertain potencies.

Test: qHTS Assay for Lipid Storage Modulators in Drosophila S3 Cells;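 for cell number change: cells counted by Cell Tracker Red CMTPX staining in the red channel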
Conditions: BODIPY lipid droplet fluorescence, 18-24 h; for cell number change: measured here: cell count max response, cells fed with added oleic acid
Method in brief: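 Drosophila S3 cells loaded with oleic acid (400 uM, as added) and compounds at several concentrations; lipid droplets imaged by 488-nm laser-scanning cytometry, 500–530 nm intensity and object ratio to cell channel. Percent activity normalized to 20 uM Triacsin C.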

[1] = measured here: lipid fluorescence (Fed channel) AC50, cells fed with added oleic acid
[2] = measured here: cell number channel AC50, cells fed with added oleic acid

**Q.** For `CC(=O)NC(=S)NNC(=O)c1ccc(Br)cc1`, which AC50 [1] is on record?
**A.** Its AC50 is 6.51 µM [rising, single point].

**Q.** Which results are given for `CCN(CC(=O)Nc1ccccc1C(F)(F)F)C(=O)c1cc(-c2cccs2)nn1-c1ccccc1`?
**A.** cell number change: -42.8%; AC50 [2]: 17.8 µM [falling, single point]; AC50 [1]: 17.8 µM [falling, single point]

**Q.** For `CCN(CCNC(=O)C1CCN(S(=O)(=O)c2cccc3cccnc23)CC1)c1ccccc1`, which AC50 [2] is on record?
**A.** The AC50 was 2.91 µM [rising, partial curve].

**Q.** And the AC50 [1]?
**A.** Its AC50 is 6.51 µM [rising, single point].

**Q.** For `Cc1ccc(C)c(CSc2ccc3nnc(-c4ccccn4)n3n2)c1`, which cell number change is on record?
**A.** Its cell number change is -4.77%.

**Q.** What about the AC50 [1] of the same compound?
**A.** The AC50 was 6.51 µM [falling, single point].

**Q.** For `CCOC(=O)N1CCN(S(=O)(=O)c2cc(C)c(C)cc2C)CC1`, which cell number change is on record?
**A.** Its cell number change is -26.8%.

**Q.** And the AC50 [1]?
**A.** Its AC50 is 29.1 µM [falling, single point].

**Q.** Which results are given for `CN1CCCC(OC(=O)/C(C#N)=C/c2ccccc2)C1` (stereo not drawn)?
**A.** cell number change: 30.2%; AC50 [2]: 29.1 µM [rising, single point]

**Q.** For `O=C(NCCc1nc2ccccc2[nH]1)/C(=C/c1ccc(F)cc1)NC(=O)c1ccco1`, which cell number change is on record?
**A.** The cell number change was 39.4%.

**Q.** What about the AC50 [2] of the same compound?
**A.** Its AC50 is 25.9 µM [rising, single point].

**Q.** Which cell number change does the source give for `COc1ccc(CNC(=O)CN(Cc2ccco2)C(=O)CNS(=O)(=O)c2ccccc2)cc1` here?
**A.** The cell number change was -14.1%.

**Q.** Which cell number change does the source give for `COc1ccc(CCNC(=O)C(=O)c2cn(CC(=O)N3CCOCC3)c3ccccc23)cc1OC` here?
**A.** Its cell number change is -14%.

**Q.** What about the AC50 [1] of the same compound?
**A.** Its AC50 is 3.26 µM [falling, partial curve].

**Q.** Which results are given for `COc1ccccc1C(=O)NNC(=O)c1sccc1-n1cccc1`?
**A.** cell number change: 19.6%; AC50 [1]: 3.26 µM [rising, single point]

**Q.** For `O=C(CCn1c(=O)oc2ccccc21)n1c(=O)oc2ccccc21`, which AC50 [1] is on record?
**A.** Its AC50 is 29.1 µM [rising, single point].

**Q.** Which results are given for `COc1cc(C2C(C#N)=C(N)N(c3cccnc3)C3=C2C(=O)CCC3)ccc1O` (stereo not drawn)?
**A.** AC50 [2]: 6.51 µM [rising, single point]; AC50 [1]: 0.731 µM [rising, full curve]

**Q.** For `CC1CCN(S(=O)(=O)c2ccc(NC(=O)CCNC(=O)c3ccc(Cl)cc3)cc2)CC1`, which cell number change is on record?
**A.** Its cell number change is -48%.

**Q.** Which cell number change does the source give for `O=C1CSC(c2ccccc2[N+](=O)[O-])N1c1ccccc1` (stereo not drawn) here?
**A.** Its cell number change is 19.1%.

**Q.** For `CCOC(=O)N1CCC(NC(=O)C(C)n2c3ccccc3c3cnn(C)c(=O)c32)CC1` (stereo not drawn), which cell number change is on record?
**A.** Its cell number change is -2.34%.

**Q.** What about the AC50 [2] of the same compound?
**A.** The AC50 was 0.00461 µM [falling, full curve, poor fit].

**Q.** What about the AC50 [1] of the same compound?
**A.** The AC50 was 20.6 µM [rising, single point].

**Q.** Which cell number change does the source give for `CN(CC(=O)Nc1ccccc1Br)C(=O)c1ccccc1OCc1ccc(F)cc1` here?
**A.** Its cell number change is 18.4%.

**Q.** What about the AC50 [2] of the same compound?
**A.** The AC50 was 0.58 µM [falling, single point].

**Q.** With `CC(=O)N1CCN(C(=O)c2ccc(S(=O)(=O)Nc3ccccc3F)cc2)CC1` as the compound, how does the cell number change read?
**A.** The cell number change was -12.3%.

**Q.** For `CC(C)(C)n1ncc2c(=O)n(Cc3ccc(Cl)c(Cl)c3)cnc21`, which cell number change is on record?
**A.** Its cell number change is -8.63%.

**Q.** For `COc1cccc(C(CC(=O)Nc2cccc3ccccc23)NC(=O)c2ccccc2)c1` (stereo not drawn), which cell number change is on record?
**A.** Its cell number change is 11%.

**Q.** With `COc1ccc(CNC(=O)CC(C)S(=O)(=O)c2ccc3c(c2)NC(=O)CO3)cc1` (stereo not drawn) as the compound, how does the cell number change read?
**A.** The cell number change was 16.7%.

**Q.** And the AC50 [1]?
**A.** The AC50 was 23.1 µM [rising, single point].

**Q.** Which cell number change does the source give for `Cc1ccccc1C(=O)N(C)Cc1ccccc1` here?
**A.** Its cell number change is -0.135%.

**Q.** And the AC50 [1]?
**A.** Its AC50 is 4.11 µM [rising, single point].

**Q.** Which cell number change does the source give for `c1ccc(CSCc2nc3ccccc3[nH]2)cc1` here?
**A.** The cell number change was 33.3%.

**Q.** And the AC50 [2]?
**A.** Its AC50 is 2.91 µM [rising, full curve].

**Q.** For `CCc1cccc(CC)c1NC(=O)CN1CCc2cc(OC)c(OC)cc2C1`, which cell number change is on record?
**A.** The cell number change was -3.07%.

**Q.** And the AC50 [1]?
**A.** The AC50 was 23.1 µM [falling, single point].

**Q.** Which cell number change does the source give for `CCCOc1ccc(CCC(=O)N/N=C/c2ccc([N+](=O)[O-])o2)cc1` here?
**A.** The cell number change was -18.5%.

**Q.** For `O=C(CN1CCCCC1)NC(=O)NC1CCCCC1`, which cell number change is on record?
**A.** The cell number change was 13%.

**Q.** With `CS(=O)(=O)N1CC(C(=O)O)Oc2ccc(CC(=O)O)cc21` (stereo not drawn) as the compound, how does the cell number change read?
**A.** The cell number change was -6.84%.

**Q.** For `CCCNC(=O)c1cccc(Cn2nc(C)c(Br)c2C)c1`, which cell number change is on record?
**A.** Its cell number change is 30.5%.

**Q.** What about the AC50 [2] of the same compound?
**A.** The AC50 was 0.58 µM [rising, partial curve].

**Q.** What about the AC50 [1] of the same compound?
**A.** The AC50 was 2.06 µM [rising, partial curve].

**Q.** Which cell number change does the source give for `COc1ccc(N(C)S(=O)(=O)c2cccc(C(=O)NC3CCCCCC3)c2)cc1` here?
**A.** Its cell number change is 20.1%.

**Q.** With `C=CCNCc1ccc(C(=O)NCCCCCCC)cc1[N+](=O)[O-]` as the compound, how does the cell number change read?
**A.** Its cell number change is 8.38%.

**Q.** And the AC50 [1]?
**A.** The AC50 was 6.51 µM [falling, single point].

**Q.** What does the source list for `CCO/N=C(\C)c1c(O)cc(C(C)C)n(-c2ccccc2)c1=O`?
**A.** cell number change: -3.45%; AC50 [2]: 0.0731 µM [rising, full curve, poor fit]; AC50 [1]: 6.51 µM [rising, partial curve, poor fit]

**Q.** Which cell number change does the source give for `CC(C)OCC1Cn2c(nc3c2c(=O)n(C)c(=O)n3C)O1` (stereo not drawn) here?
**A.** Its cell number change is -21.6%.

**Q.** What about the AC50 [1] of the same compound?
**A.** Its AC50 is 0.517 µM [falling, full curve, poor fit].

**Q.** Which results are given for `O=[N+]([O-])c1cc(C(F)(F)F)ccc1Oc1cccnc1[N+](=O)[O-]`?
**A.** cell number change: -21.6%; AC50 [1]: 3.66 µM [falling, full curve, poor fit]

**Q.** Which cell number change does the source give for `CSc1ccc(C(=O)/C=C/c2ccc(N)cc2)cc1` here?
**A.** The cell number change was -11.7%.

**Q.** And the AC50 [1]?
**A.** Its AC50 is 4.11 µM [falling, single point].

**Q.** Which cell number change does the source give for `COc1ccc2ccccc2c1/C=N/NC(=O)c1nnn(-c2nonc2N)c1C(C)C` here?
**A.** Its cell number change is -8.73%.

**Q.** What about the AC50 [1] of the same compound?
**A.** The AC50 was 0.58 µM [rising, single point].

**Q.** For `CC(NC(=O)Cc1ccsc1)c1ccc(Cl)cc1Cl` (stereo not drawn), which cell number change is on record?
**A.** Its cell number change is -19.7%.

**Q.** What about the AC50 [1] of the same compound?
**A.** The AC50 was 5.62 µM [falling, single point].

**Q.** Which AC50 [2] does the source give for `Cc1cccc(Cn2c(C(C)(C)C)cc3cccnc32)c1` here?
**A.** Its AC50 is 3.66 µM [falling, single point].

**Q.** With `CC(=O)c1cccc(NC(=O)COC(=O)COc2c(Cl)cc(Cl)c3ccc(C)nc23)c1` as the compound, how does the cell number change read?
**A.** The cell number change was 9.89%.

**Q.** What about the AC50 [1] of the same compound?
**A.** Its AC50 is 0.366 µM [rising, full curve, poor fit].

**Q.** With `Cc1cccc(OCc2ccc(C(=O)Nc3cc(C)on3)o2)c1` as the compound, how does the cell number change read?
**A.** Its cell number change is 81.9%.

**Q.** What about the AC50 [2] of the same compound?
**A.** Its AC50 is 8.2 µM [rising, partial curve].

**Q.** And the AC50 [1]?
**A.** The AC50 was 0.206 µM [rising, single point].

**Q.** With `COc1ccc(OC)c(CN2CCCCCC2)c1` as the compound, how does the cell number change read?
**A.** The cell number change was 2.7%.

**Q.** Which results are given for `CCNC(=S)N(CCCO)Cc1cc2cc3c(cc2[nH]c1=O)OCCO3`?
**A.** cell number change: -12.2%; AC50 [1]: 5.17 µM [falling, partial curve]

**Q.** Which cell number change does the source give for `N=C1c2ccccc2CN1NC(=O)c1cccc(S(=O)(=O)N2CCOCC2)c1` here?
**A.** Its cell number change is 5.7%.

**Q.** And the AC50 [1]?
**A.** The AC50 was 0.164 µM [rising, full curve, poor fit].
